# Results taken from publication PMC8062929.
# Target: Trx (thioredoxin tag alone) (UniProt P0AA25)
# Assay: EMSA
# Details: EMSA: 1 ug protein, 50 fmol probe in 10 ul; 10 mM HEPES pH 7.9, 40 mM KCl, 1 mM EDTA, 1 mM DTT, 50 ng herring sperm DNA, 15 ug BSA, 10% glycerol, 1 h on ice; recombinant protein; label: 32P
row,Sequence,binding result
1,ACGTGGCGGTTACCGCCGATCACATGCCCAAGGCCG / ACATCGGCCTTGGGCATGTGATCGGCGGTAACCGCC [5U-ZmPEPC1-1],no binding

# Target: T1, Trx::ZmOrphan94 (Zea mays B73) (UniProt C0P6E9)
# T1 sequence (looked up): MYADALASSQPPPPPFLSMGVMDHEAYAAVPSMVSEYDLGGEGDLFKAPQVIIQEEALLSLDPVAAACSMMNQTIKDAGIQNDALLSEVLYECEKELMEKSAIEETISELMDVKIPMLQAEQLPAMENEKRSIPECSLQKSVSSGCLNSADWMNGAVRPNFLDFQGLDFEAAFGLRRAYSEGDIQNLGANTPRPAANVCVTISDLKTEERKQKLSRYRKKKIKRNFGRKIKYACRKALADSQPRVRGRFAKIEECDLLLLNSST
# Assay: EMSA
# Details: EMSA: 1 ug protein, 50 fmol probe in 10 ul; 10 mM HEPES pH 7.9, 40 mM KCl, 1 mM EDTA, 1 mM DTT, 50 ng herring sperm DNA, 15 ug BSA, 10% glycerol, 1 h on ice; recombinant protein; residues 1-264; protein details: N-terminal Trx (pET32a); label: 32P
row,Sequence,binding result
1,ACGTGACCCGTGTATAGCCATATATATACCCGCCCG / ATCACGGGCGGGTATATATATGGCTATACACGGGTC [5U-ZmPEPC1-m3.3],binds more weakly
2,ACGTGCGAGGGCCGCCCGTTCCCGTGTATAGCCACG / ATCACGTGGCTATACACGGGAACGGGCGGCCCTCGC [5U-ZmPEPC1-m2.1],binds more weakly
3,ACGTGGCCAAGCCAAAAAGGAGCCTCAGCCGCAGCG / ACATCGCTGCGGCTGAGGCTCCTTTTTGGCTTGGCC [5U-ZmPEPC1-0],no binding
4,ACGTGGCGGTTACCGCCGATTATATGCCCAAGGCCG / ACATCGGCCTTGGGCATATAATCGGCGGTAACCGCC [5U-ZmPEPC1-m1.1],binds more weakly
5,ACGTGTCCCGTGCACAGCTATACACACACCCGCCCG / ATCACGGGCGGGTGTGTGTATAGCTGTGCACGGGAC [5U-ZmPEPC1-m3.1],binds more weakly
6,ACGTGTCCCGTGTATAGCTATACACACACCCGCCCG / ATCACGGGCGGGTGTGTGTATAGCTATACACGGGAC [5U-ZmPEPC1-m3.2],binds more weakly

# Negatives hold for the conditions tested. For some of these results: Protein sequences can lack the tags named with them. For at least one entry, the source does not settle the construct or the ends of the probe. For some of these results: Weaker means in comparison with the reference protein, sequence or condition of that experiment. For some of these results: At least one verdict was read from the data and is not stated in words by the source.
